About 210 (0.4%) of roughly 52,000 sequences were called active.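 How the source made its calls: active means gene whose silencing raises cell survival under the drug, median off-target-corrected z-score across its silencing RNAs 2 or more; inactive means the rest.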 Some of the results follow.

The nature of the assay: Resistance to Poly (ADP-Ribose) Polymerase inhibitor: Gene Identification via Genome-wide siRNA Screen. As to conditions: mouse BRCA2 R2336H ES cells, olaparib, CellTiter-Glo viability; hits give high values. An outline of the steps: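 Genome-wide siRNA screen (3 siRNAs/gene, 20 nM) in mouse ES cells carrying hypomorphic BRCA2 R2336H; olaparib 500 nM added 48 h post-transfection, CellTiter-Glo viability 72 h later. Normalized to plate-median negative control; MAD z-scores, gene median, seed-adjusted.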
For the sequence GGGAACAUAGAGUUGAUCCTT against Map17, the z-score is inactive: -0.0915.
In the case of GGUUCCAACCGAUAAGUAUTT against Fh1, the z-score was inactive: -1.96.
The figure for “GGGACUCAUUGCUAACUCATT against C430013M08Rik” is inactive: -0.852; for “CCCAAGGUCCAGUUUGAUGTT against D14Ertd209e” it is inactive: -0.389.
The figure for GGACAUCACCUGUCAAAGUTT against Zar1 is inactive: 0.317.
On to GCACUUCAACCCUAACAUUTT against Acp2, for which the z-score is inactive: 1.4.
On to “GGGUUUUACCAUGGAAUUCTT against 2810046C01Rik”, for which the z-score is inactive: -1.83.
For GGUUGUGACUUCACGUUCCTT against Sult1a1 the value was inactive: 0.591.
For “GCACUCACACAUUAAGAGATT against 2310042N02Rik” the value was inactive: -0.523.
For CCUACUCCUUCUUGAUUUATT against Lpl the value was inactive: -0.153; for “GGCCUGGAUCAUUGUGGUGTT against 2810025M15Rik”, inactive: 0.523; for GGAUAUUCAGCACUGGGAATT against Rrm2, inactive: -1.9.
Take “GCUAUUUAUCACCAAGACATT against 4932443D16Rik”: the z-score was inactive: 0.0165.
Consider “GGAAGUUCAAGAAGAUCAUTT against D1Ertd396e”, for which the z-score is inactive: -2.92.
In the case of GGUAUCAUGCUGAGAGAGATT against B4galt6, the z-score is inactive: 1.12.
Consider CCAAUUGCUAAUCCUUUGUTT against Pin1, for which the z-score is inactive: 0.609.
Regarding GCUACUGUCAAGUAUGGAATT against Dscr2, the z-score was inactive: 0.11.
The figure for GGAGAUUAUGAAAGAUUUGTT against Pank3 is inactive: 1.23; for GGACCAUCCCUGUUUUAUATT against Ifrd2 it is inactive: 0.798.
For GCAAUCGAUGCAUUUAAUGTT against Pex2 the value was inactive: 0.669; for “GGAAUAUACGAAUCACAGATT against 4930478A21Rik”, inactive: -0.0969.
Consider GGAGUCCUCUAUGUGCAGATT against Pla2g4b, for which the z-score is inactive: -1.03.
As to GGGAUGGACUUUUGACUGATT against V1rh13, the z-score was inactive: -0.714.
The figure for GUUUGCUGCUAUCUCUUUUTT against Atp6v0e is inactive: -0.0811; for GGAGUGGAGUUCAACAUUGTT against Atox1 it is inactive: 0.269; for GGCAUUUUCCACAUGCGGCTT against Olfr139 it is inactive: 0.814.
For GGUGCAAGAACACUAUGAUTT against U2af1l4 the value was inactive: 0.00628; for “GGAAGAUUUAUUUCACGGATT against 2310001A20Rik”, inactive: -0.0405.
Consider “GGAAGGAAGUCAUUUUUUCTT against 8430410K20Rik”, for which the z-score is inactive: -0.357.
As to GGAGAGACUUGAGAUUGUCTT against Ptx3, the z-score is inactive: -2.6.
For GGUCUGGGACUGAAGCACUTT against Sec14l3 the value was inactive: -0.303; for GGCCAACUUGAGAUUGUCUTT against Wdr68, inactive: 0.437; for GCCAUAUUCAAAUAACUGATT against Tor3a, inactive: -1.46.
“GGAGAUUUUCAAGAGACUCTT against 0610010F05Rik”: the z-score is inactive: 0.657.
For CGUGGGCUCUGUUGACAUUTT against Olfr492 the value was inactive: -0.593.
For GGAAGUGUGACUUGAUUGCTT against AW413431 the value was inactive: -1.12; for GGAUCAACGGAUUUUAGAATT against AW146020, inactive: 0.294.
Take GGAUAAGCCUUAAGGAAAATT against Stard5: the z-score was inactive: -0.778.
For GGUGGUGGAUGAUGAAGACTT against Myo7a the value was inactive: -0.461.
As for GGAUGACCUCAAGUAUAAGTT against Mobkl2b, the z-score is inactive: 0.546.
For GCAACCUUCAUUCGUAUAUTT against BC068281 the value was inactive: -0.854; for GCCAAAAUCAAGAUUUGCUTT against Angptl3, inactive: -0.371.
For GGAAGCAGAGAAAAUGUUCTT against Snrpa1 the value was inactive: -1.78; for “CCUACGUCCAGUAGUGCAGTT against D030015G18Rik”, inactive: -0.0797.
For GGUCGUGAUAUUAUUGGGUTT against Ddx47 the value was inactive: -0.0395; for “GGCUAAGGAAUGUCAAUAATT against 4922503E23Rik”, inactive: -0.503.
Take CCUGGAUACCAAUGAUGAATT against Gprk2l: the z-score is inactive: -1.95.
For UGGCCACGACCCUGAACUUTT against Ghrhr, the z-score is inactive: 1.81.
For GGCCAAAAUGGUGUUGUUCTT against Oas1c the value was inactive: 1.42.
For the sequence GGCUUACAUACAUACUAUGTT against Ddx3y, the z-score is inactive: 0.414.
As to GGAGAACUUCAACAAUGUCTT against Tesc, the z-score is inactive: 0.0465.
For the sequence “GGCAAAAACCAGGAUGAAUTT against 4932431F02Rik”, the z-score was inactive: -0.0173.
For GGUCCAAGUUACAGCAAAATT against V1rg3, the z-score was inactive: 2.16.
For CCAAGUGAUCUACAGUGAUTT against Mrc2 the value was inactive: 0.379.
For GGUGGUAUCUGUAUUCUAUTT against Olfr1106 the value was inactive: 0.33.
On to GGUCUUCCAAGAAAAAGGCTT against a, for which the z-score is inactive: 1.59.
As for “GGCAUUUUCUAAUGGCUAUTT against C230086A09Rik”, the z-score was inactive: 0.373.
As to GGACCUCUUCCUGAUGGAUTT against Yap1, the z-score is inactive: -0.774.
On to GGGCCAGCAAGGAAAGAAUTT against Pitx2, for which the z-score is inactive: -1.73.
The figure for GGCUUACACAAAAAUCUGUTT against Camk2d is inactive: 0.128.
As to GGACUUUCUAAAUAGCUUCTT against Gucy1a3, the z-score is inactive: 3.09.
The figure for GGGAGACUUGUCAUGCACATT against Matp is inactive: 0.0324; for “GGUUCAAAUAUCACAUUGATT against B230206H07Rik” it is inactive: -1.83; for “CCCAGAAGCCUUAUCGUCUTT against 2410129H14Rik” it is inactive: 0.663.
As for GGAUGAUCAAGACAAGCAGTT against Og2x, the z-score is inactive: 1.94.
In the case of GGAAAAGCAUCUUCUCUUUTT against Rnf141, the z-score was inactive: 0.548.
The figure for GGAGGAGACUAUUUUCGCCTT against P42pop is inactive: 0.525; for “GGGCUUGAUUUGAUCCUGGTT against 4933425L06Rik” it is inactive: -0.126.
For “GGGCAUUUUAACCAAAUGATT against 9630025C22” the value was inactive: 0.576.
The figure for GCGACUCACUGGGAACCUUTT against Col9a3 is inactive: 0.448; for “GGAAAAAGGAGAGAAUGAATT against 4933417K05Rik” it is inactive: -1.28.
For the sequence “GGUUGUGGAAUGCAUCGGATT against 1110019I14Rik”, the z-score is inactive: -1.76.
The figure for GGAUAAUGUGGUCAUAGUATT against Ap3m1 is inactive: -1.09; for GGAUAGCUCAUGAUGCUGUTT against Usp13 it is inactive: 1.18; for CCCAAACCAAUUUGUGCCUTT against Add2 it is inactive: -0.0473.
For the sequence “GGUGGUUUUAAAGUGCUGGTT against 9930019B18Rik”, the z-score is inactive: -0.707.
In the case of “GGAGGAUCCUGCUAUUCCATT against 4930583K01Rik”, the z-score was inactive: -0.242.
As for GGAAGAAGGCAGUGCUGAUTT against Ap3d1, the z-score was inactive: -3.03.
As to GGAUCAGAUCUUGUGUGACTT against Trim16, the z-score was inactive: 1.1.
For GGCACAACUCCCUUGUGAUTT against Tlr8 the value was inactive: -0.677; for “GGAGAACUAUUUCUUCAUCTT against 5730511K23Rik”, inactive: 2.28.
The figure for GGAGAGAUGUCCACAGCCUTT against Smarcal1 is inactive: -1.25.
The figure for CCAUGGUUACCGUGUACUATT against Olfr1513 is inactive: -0.901; for GGAGCCUUCACGGGUAUCATT against Slc6a9 it is inactive: -2.57.
With GGAAAAUGAAGGUUCAGAATT against Pkib, the z-score is inactive: -0.608.
For GGAUCUCACCCAACAGGCUTT against Samd7 the value was inactive: 0.197; for GGCUUAUCAUACCUGGUUGTT against Olfr691, inactive: -0.327; for CCAGUACAAAGCCACAAUATT against Rab7, inactive: 0.465.
For the sequence GCCCAUUAUGAAACUGAAGTT against Nfatc3, the z-score is inactive: -0.0888.
Take CCAAGCAAGUGGUUAACUUTT against Psat1: the z-score is inactive: -0.4.
For “CGAAUUCAAUGUGCAUUAGTT against E130009J12Rik” the value was inactive: -1.85; for GGGCAGUGUACUGUUUAACTT against Rhpn1, inactive: -0.781; for GGGAGCAAAAGCUUUACUUTT against Prlpi, inactive: 0.313.
As for “GGUUCCUUCUUCAUCUUCCTT against 2310002J15Rik”, the z-score is inactive: -0.293.
The figure for GGAGGAAUUCCAAUGUUACTT against Mfi2 is inactive: -0.834; for GCCUAGAGACAUUUCUACCTT against Bcl2l10 it is inactive: -0.603.
The figure for “GCAGGAACAGCCUAAGAGATT against 2810481F14Rik” is inactive: -0.0742.
Take GGAUGAAGAAACAAGAAAGTT against Tmc1: the z-score was inactive: 2.31.
For GGCUUUGGAUUUGUCAAGUTT against Dazap1 the value was inactive: -0.253; for GGAUGUGAAAUUCAAGCUUTT against Dhx34, inactive: 0.0639; for GGCAAUGUUACCAUUCACUTT against Il6ra, inactive: -1.5.
GUUUUAGUGUGGCUGCAUUTT against Gsta2: the z-score was inactive: -0.201.
Turning to GGAAGGUGAUAUCUUAUGUTT against Elmo3, the z-score was inactive: -0.671.

The values are drawn from PubChem BioAssay AID1347423 (Functional Genomics Laboratory (NCATS/FGL), 2020).
